Laboratory results: article PMC6533289
Results are given in words; binding and its absence hold for the method and conditions named. Binding seen in cells or lysates may run through a third protein. Some results given as binding are weak or reduced against the parent protein; the word gives no strength.

Sequences of proteins named here, by UniProt entry; tags and fusion partners are left off.
UniProt O94763: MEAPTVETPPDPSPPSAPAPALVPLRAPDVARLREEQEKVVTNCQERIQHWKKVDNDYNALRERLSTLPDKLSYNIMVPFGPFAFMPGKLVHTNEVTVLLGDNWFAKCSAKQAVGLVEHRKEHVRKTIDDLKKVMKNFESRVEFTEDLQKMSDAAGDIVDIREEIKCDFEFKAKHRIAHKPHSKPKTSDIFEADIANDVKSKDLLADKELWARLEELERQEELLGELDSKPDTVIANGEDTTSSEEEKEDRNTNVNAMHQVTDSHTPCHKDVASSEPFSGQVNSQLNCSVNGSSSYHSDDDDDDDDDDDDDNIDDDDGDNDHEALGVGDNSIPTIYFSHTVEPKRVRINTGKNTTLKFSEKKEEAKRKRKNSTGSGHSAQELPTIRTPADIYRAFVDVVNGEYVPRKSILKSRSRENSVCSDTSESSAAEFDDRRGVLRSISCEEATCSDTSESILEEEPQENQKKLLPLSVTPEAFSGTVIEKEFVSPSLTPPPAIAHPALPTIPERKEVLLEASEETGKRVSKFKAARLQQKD
UniProt O95602: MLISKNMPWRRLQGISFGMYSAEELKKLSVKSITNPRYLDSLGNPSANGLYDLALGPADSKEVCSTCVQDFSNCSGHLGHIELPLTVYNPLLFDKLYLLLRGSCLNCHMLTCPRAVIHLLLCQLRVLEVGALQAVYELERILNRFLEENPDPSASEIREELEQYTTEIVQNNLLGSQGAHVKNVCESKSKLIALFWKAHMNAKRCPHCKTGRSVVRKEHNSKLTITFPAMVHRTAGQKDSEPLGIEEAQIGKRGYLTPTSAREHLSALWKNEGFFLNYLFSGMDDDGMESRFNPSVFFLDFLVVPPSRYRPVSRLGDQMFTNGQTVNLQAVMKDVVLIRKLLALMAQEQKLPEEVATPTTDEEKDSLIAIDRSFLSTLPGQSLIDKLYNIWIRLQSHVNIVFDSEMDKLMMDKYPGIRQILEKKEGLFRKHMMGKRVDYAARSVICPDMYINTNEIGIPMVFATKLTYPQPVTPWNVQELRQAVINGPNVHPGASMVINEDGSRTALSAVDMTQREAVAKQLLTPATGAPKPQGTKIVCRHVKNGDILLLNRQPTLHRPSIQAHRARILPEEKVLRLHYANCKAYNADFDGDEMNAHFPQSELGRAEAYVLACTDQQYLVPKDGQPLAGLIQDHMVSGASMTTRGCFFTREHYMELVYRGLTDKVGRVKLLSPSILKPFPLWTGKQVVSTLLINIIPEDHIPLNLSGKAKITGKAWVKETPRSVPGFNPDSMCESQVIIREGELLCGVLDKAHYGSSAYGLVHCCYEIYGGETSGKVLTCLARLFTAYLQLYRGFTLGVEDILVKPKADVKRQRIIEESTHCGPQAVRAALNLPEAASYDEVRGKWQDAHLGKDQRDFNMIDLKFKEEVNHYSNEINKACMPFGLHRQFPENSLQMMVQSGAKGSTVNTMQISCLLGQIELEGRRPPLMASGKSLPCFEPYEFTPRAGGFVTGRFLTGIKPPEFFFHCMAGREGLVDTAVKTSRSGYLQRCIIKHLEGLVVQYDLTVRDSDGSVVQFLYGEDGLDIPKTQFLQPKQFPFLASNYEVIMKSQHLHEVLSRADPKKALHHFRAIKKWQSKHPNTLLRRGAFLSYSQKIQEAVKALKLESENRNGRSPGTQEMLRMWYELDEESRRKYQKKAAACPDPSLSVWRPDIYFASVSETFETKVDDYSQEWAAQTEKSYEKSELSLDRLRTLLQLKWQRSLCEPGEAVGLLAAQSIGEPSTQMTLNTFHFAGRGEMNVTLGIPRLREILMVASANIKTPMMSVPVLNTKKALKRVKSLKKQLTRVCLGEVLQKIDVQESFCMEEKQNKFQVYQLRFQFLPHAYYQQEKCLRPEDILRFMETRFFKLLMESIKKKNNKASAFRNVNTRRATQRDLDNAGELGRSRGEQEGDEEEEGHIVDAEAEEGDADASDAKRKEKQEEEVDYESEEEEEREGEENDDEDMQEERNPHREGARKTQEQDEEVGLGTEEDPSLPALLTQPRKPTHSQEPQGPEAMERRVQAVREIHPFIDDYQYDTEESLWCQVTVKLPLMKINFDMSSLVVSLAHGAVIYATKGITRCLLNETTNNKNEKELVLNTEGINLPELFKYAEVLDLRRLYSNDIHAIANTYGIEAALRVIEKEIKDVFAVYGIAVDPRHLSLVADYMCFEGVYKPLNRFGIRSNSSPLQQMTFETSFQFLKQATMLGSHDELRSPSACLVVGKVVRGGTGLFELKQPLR

B1: POLR3A (polymerase RNA III DNA-directed polypeptide A) (protein, UniProt O14802 1-1390)
chain: MVKEQFRETDVAKKISHICFGMKSPEEMRQQAHIQVVSKNLYSQDNQHAPLLYGVLDHRMGTSEKDRPCETCGKNLADCLGHYGYIDLELPCFHVGYFRAVIGILQMICKTCCHIMLSQEEKKQFLDYLKRPGLTYLQKRGLKKKISDKCRKKNICHHCGAFNGTVKKCGLLKIIHEKYKTNKKVVDPIVSNFLQSFETAIEHNKEVEPLLGRAQENLNPLVVLNLFKRIPAEDVPLLLMNPEAGKPSDLILTRLLVPPLCIRPSVVSDLKSGTNEDDLTMKLTEIIFLNDVIKKHRISGAKTQMIMEDWDFLQLQCALYINSELSGIPLNMAPKKWTRGFVQRLKGKQGRFRGNLSGKRVDFSGRTVISPDPNLRIDEVAVPVHVAKILTFPEKVNKANINFLRKLVQNGPEVHPGANFIQQRHTQMKRFLKYGNREKMAQELKYGDIVERHLIDGDVVLFNRQPSLHKLSIMAHLARVKPHRTFRFNECVCTPYNADFDGDEMNLHLPQTEEAKAEALVLMGTKANLVTPRNGEPLIAAIQDFLTGAYLLTLKDTFFDRAKACQIIASILVGKDEKIKVRLPPPTILKPVTLWTGKQIFSVILRPSDDNPVRANLRTKGKQYCGKGEDLCANDSYVTIQNSELMSGSMDKGTLGSGSKNNIFYILLRDWGQNEAADAMSRLARLAPVYLSNRGFSIGIGDVTPGQGLLKAKYELLNAGYKKCDEYIEALNTGKLQQQPGCTAEETLEALILKELSVIRDHAGSACLRELDKSNSPLTMALCGSKGSFINISQMIACVGQQAISGSRVPDGFENRSLPHFEKHSKLPAAKGFVANSFYSGLTPTEFFFHTMAGREGLVDTAVKTAETGYMQRRLVKSLEDLCSQYDLTVRSSTGDIIQFIYGGDGLDPAAMEGKDEPLEFKRVLDNIKAVFPCPSEPALSKNELILTTESIMKKSEFLCCQDSFLQEIKKFIKGVSEKIKKTRDKYGINDNGTTEPRVLYQLDRITPTQVEKFLETCRDKYMRAQMEPGSAVGALCAQSIGEPGTQMTLKTFHFAGVASMNITLGVPRIKEIINASKAISTPIITAQLDKDDDADYARLVKGRIEKTLLGEISEYIEEVFLPDDCFILVKLSLERIRLLRLEVNAETVRYSICTSKLRVKPGDVAVHGEAVVCVTPRENSKSSMYYVLQFLKEDLPKVVVQGIPEVSRAVIHIDEQSGKEKYKLLVEGDNLRAVMATHGVKGTRTTSNNTYEVEKTLGIEAARTTIINEIQYTMVNHGMSIDRRHVMLLSDLMTYKGEVLGITRFGLAKMKESVLMLASFEKTADHLFDAAYFGQKDSVCGVSECIIMGIPMNIGTGLFKLLHKADRDPNPPKRPLIFDTNEFHIPLVT

Molecular target: unconventional prefoldin RPB5 interactor (URI1) (human (endogenous in A375-P, A2058, SK-MEL-28, UACC-62)) (UniProt O94763)
Test: co-IP; endogenous URI1 immunoprecipitated with anti-URI1 mAb clone 179-2-1 and Protein G Agarose from 900 μg lysate in TNN buffer (250 mM NaCl, 0.5% NP-40), 4 °C, mouse IgG control; immunoblot; A375-P, A2058, SK-MEL-28, UACC-62 cells treated with DMSO, 1 μM PLX4720 (12-48 h), AZD6244, or PLX4720 with Bortezomib

Row | Molecule | binding
1 | POLR1A (polymerase RNA I DNA-directed polypeptide A) (from UniProt O95602 1-1720) | binds
2 | B1 | binds
